Key:
[1] = Tape durability test (coefficient of friction, still durability, shuttle durability); settings: for Still durability after heating test / Coefficient of friction after 100 runs after heating test / Shuttle durability after heating: after heating 10 minutes at 100° C.
[2] = Disk durability test (CSS durability test); settings: 25° C., 60% RH; after heating test 3 minutes at 300° C.

| Compound | Still durability ([1]; 40° C., 30% RH) [min] | Still durability after heating test ([1]; 40° C., 30% RH) [min] | Coefficient of friction after 100 runs ([1]; 40° C., 90% RH) | Shuttle durability ([1]; 40° C., 90% RH) [times] | Coefficient of friction after 100 runs after heating test ([1]; 40° C., 90% RH) | Shuttle durability after heating ([1]; 40° C., 90% RH) [times] | Coefficient of friction after 100 runs ([1]; −5° C.) | Shuttle durability ([1]; −5° C.) [times] | Still durability ([1]; −5° C.) [min] | Coefficient of friction after 100 runs after heating test ([1]; −5° C.) | Shuttle durability after heating ([1]; −5° C.) [times] | Still durability after heating test ([1]; −5° C.) [min] | CSS durability after heating [2] |
| --- | --- | --- | --- | --- | --- | --- | --- | --- | --- | --- | --- | --- | --- |
| CCCCCCCCCCCCCCCCCCN(C)C.O=S(=O)(NS(=O)(=O)C(F)(F)C(F)(F)C(F)(F)C(F)(F)F)C(F)(F)C(F)(F)C(F)(F)C(F)(F)F [Ex. 1A, bis(nonafluorobutanesulfonyl)imide-N,N-dimethyl-octadecyl ammonium] | >60 | >60 | 0.23 | >200 | 0.23 | >200 | 0.21 | >200 | >60 | 0.21 | >200 | >60 | – |
| nonafluorobutanesulfonic acid-octadecyl ammonium [Comp. Ex. 1A] | >60 | >60 | 0.23 | >200 | 0.23 | >200 | 0.19 | >200 | >60 | 0.20 | >200 | >60 | >50,000 times |
| nonafluorobutanesulfonic acid-N-methyloctadecyl ammonium [Comp. Ex. 4A] | – | – | – | – | – | – | – | – | – | – | – | – | >50,000 times |
| bis(nonafluorobutanesulfonyl)imide-N,N-dimethyl-dodecyl ammonium [Ex. 2A] | – | – | – | – | – | – | – | – | – | – | – | – | >50,000 times |
| nonafluorobutanesulfonic acid-trimethyloctadecyl ammonium [Comp. Ex. 5A] | – | – | – | – | – | – | – | – | – | – | – | – | >50,000 times |
| CCCCCCCCCCCCCCCCCCN.O=S1(=O)NS(=O)(=O)C(F)(F)C(F)(F)C1(F)F [Comp. Ex. 3A, hexafluorocyclopropane-1,3-bis(sulfonyl)imide-octadecyl ammonium] | >60 | >60 | 0.24 | >200 | 0.24 | >200 | 0.21 | >200 | >60 | 0.21 | >200 | >60 | – |
| CCCCCCCCCCCCCCCCCCN.O=S(=O)(NS(=O)(=O)C(F)(F)C(F)(F)C(F)(F)C(F)(F)F)C(F)(F)C(F)(F)C(F)(F)C(F)(F)F [Comp. Ex. 2A, bis(nonafluorobutanesulfonyl)imide-octadecyl ammonium] | >60 | >60 | 0.22 | >200 | 0.24 | >200 | 0.20 | >200 | >60 | 0.21 | >200 | >60 | – |
| pentadecafluorooctanoic acid octadecyl ammonium [Comp. Ex. 6A] | >60 | 16 | 0.25 | >200 | 0.51 | 23 | – | >200 | >60 | 0.45 | 30 | 12 | 891 times |

From patent publication US20170369807A1, “Ionic Liquid, Lubricant, and Magnetic Recording Medium” (Dexerials Corporation, priority 2016, published 2017)
